{"source": "PubChem BioAssay AID590", "about": "(National Center for Advancing Translational Sciences (NCATS), 2007)", "note": "Among all 59,000 compounds or so, about 6,500 (11%) were called active. Inconclusive results, whose numbers are uncertain, are shown with a selection of clear calls. No stated cut-off is given here; in the data, active means max dye-equivalent concentration above about 10 nM; inconclusive means mostly about 1.1 nM to 9.6 nM; inactive means weaker than that.", "data": [{"experiment": "qHTS Assay for Spectroscopic Profiling in A350 Spectral Region", "details": "Compound autofluorescence, 340/450 nm, Alexa 350 dye-equivalents; stronger effect = higher value", "values": [{"smiles": "Clc1ccc(-n2ncc3c(NCc4ccc5c(c4)OCO5)ncnc32)cc1", "max dye-equivalent concentration": "inconclusive: 2.2 nM"}, {"smiles": "COc1ccccc1CN1CCC2(CC1)CCN(C(=O)c1ccco1)CC2", "max dye-equivalent concentration": "inactive"}, {"smiles": "O=C(OCc1cc2ccccc2[nH]c1=O)C1CCCCC1", "max dye-equivalent concentration": "inconclusive: 3.8 nM"}, {"smiles": "CCOC(=O)c1cc(OCC(=O)NC(C)C(C)C)cc(C(=O)OCC)c1", "note": "(stereo not drawn)", "max dye-equivalent concentration": "inconclusive: 4.1 nM"}, {"smiles": "COc1ccc(CC(=O)Nc2nc(C)cs2)cc1OC", "max dye-equivalent concentration": "inconclusive: 1.1 nM"}, {"smiles": "Cc1cc2c(c(C)nn2-c2ccccc2)c(=O)o1", "max dye-equivalent concentration": "inactive"}, {"smiles": "N#CCSc1nc2cc(C(=O)N3CCCC3)ccc2c(=O)n1Cc1ccccc1", "max dye-equivalent concentration": "inactive"}, {"smiles": "COC(=O)c1cc2c(C)nn(-c3ccccc3)c2s1", "max dye-equivalent concentration": "inconclusive: 2.7 nM"}, {"smiles": "CC(C)C(NS(=O)(=O)c1cccs1)C(=O)NCCN1CCN(c2ccccc2)CC1", "note": "(stereo not drawn)", "max dye-equivalent concentration": "inactive"}, {"smiles": "COCCNc1nc(=S)[nH]c2cc(OC)c(OC)cc12", "max dye-equivalent concentration": "inconclusive: 3.1 nM"}, {"smiles": "COc1cc(-c2nnc(CSc3nc4ccccc4s3)o2)cc(OC)c1OC", "max dye-equivalent concentration": "inconclusive: 2.1 nM"}, {"smiles": "O=C(c1cc2ccccc2oc1=O)N1CCN(c2ccccn2)CC1", "max dye-equivalent concentration": "inactive"}, {"smiles": "CC(=O)C(=[N+]=[N-])C(=O)NCc1ccccc1", "max dye-equivalent concentration": "inactive"}, {"smiles": "O=C(CCSc1nnnn1-c1ccccc1)N1CCOCC1", "max dye-equivalent concentration": "inactive"}, {"smiles": "O=c1[nH]c(CN2CCN(Cc3ccc4c(c3)OCO4)CC2)nc2ccccc12", "max dye-equivalent concentration": "inconclusive: 5.6 nM"}, {"smiles": "CCC1(CC)Nc2ccccc2C(=O)N1c1ccc(NC(C)=O)cc1", "max dye-equivalent concentration": "active: 2900 nM"}, {"smiles": "O=C(CCC1=NS(=O)(=O)c2ccccc2N1)NC1CCCCCCC1", "max dye-equivalent concentration": "inconclusive: 1.8 nM"}, {"smiles": "CCOC(=O)N1CCN(CCC(=O)Nc2ccc(OC(F)(F)F)cc2)CC1", "max dye-equivalent concentration": "inactive"}, {"smiles": "O=C1c2cccnc2C(O)N1Cc1cccs1", "note": "(stereo not drawn)", "max dye-equivalent concentration": "inconclusive: 1.9 nM"}, {"smiles": "COC(=O)N1CCC2(CCCN(Cc3ccccc3)C2)CC1", "max dye-equivalent concentration": "inactive"}, {"smiles": "Cc1cc(-n2c(C)cc(C(=O)CN3C(=O)NC4(CCCCCC4)C3=O)c2C)no1", "max dye-equivalent concentration": "inconclusive: 1.8 nM"}, {"smiles": "COC(=O)c1ccc(CS(=O)(=O)c2ccccc2C)o1", "max dye-equivalent concentration": "inconclusive: 3.7 nM"}, {"smiles": "COC(=O)CCCC(=O)O", "max dye-equivalent concentration": "inactive"}, {"smiles": "C=CCn1cnc2c(c1=O)c1nc3ccccc3nc1n2-c1ccc(C)cc1", "max dye-equivalent concentration": "active: 30 nM"}, {"smiles": "Cc1cc(N2C(=O)CCC2=O)n(-c2ccccc2)n1", "max dye-equivalent concentration": "inactive"}, {"smiles": "CC(C)C1=C2CCCCC2NC(=O)N1", "note": "(stereo not drawn)", "max dye-equivalent concentration": "inconclusive: 3.2 nM"}, {"smiles": "O=C(CSCc1ccc(Cl)cc1)c1ccco1", "max dye-equivalent concentration": "inconclusive: 6.8 nM"}, {"smiles": "O=C(O)c1cc(-c2cccnc2)nn1-c1ccccn1", "max dye-equivalent concentration": "inconclusive: 3.9 nM"}, {"smiles": "COC(=O)c1cc(=O)n2c(-c3ccccc3)csc2n1", "max dye-equivalent concentration": "inactive"}, {"smiles": "O=c1/c(=C/c2ccc(CNS(=O)(=O)c3ccccc3)o2)sc2n1CCN=2", "max dye-equivalent concentration": "inconclusive: 6.9 nM"}, {"smiles": "Cc1ccc(-n2c(C)cc(C)c(C#N)c2=O)cc1Cl", "max dye-equivalent concentration": "active: 28 nM"}, {"smiles": "CCOC(=O)c1c(C)n(C)c2ccc(OC(=O)c3ccoc3)cc12", "max dye-equivalent concentration": "inconclusive: 1.9 nM"}, {"smiles": "CC1CCCCC1NS(=O)(=O)c1ccc(S(=O)(=O)NCc2ccncc2)cc1", "note": "(stereo not drawn)", "max dye-equivalent concentration": "inactive"}, {"smiles": "CC(C)(C)c1cc(CN(CCO)CCO)cc(C(C)(C)C)c1O", "max dye-equivalent concentration": "inconclusive: 7.2 nM"}, {"smiles": "COCCn1c(SCC(=O)Nc2sc(C)c(C)c2C#N)nnc1-c1ccc(OC)cc1", "max dye-equivalent concentration": "active: 11 nM"}, {"smiles": "CCN1C(=O)c2n[nH]c(C(=O)OC)c2C1=O", "max dye-equivalent concentration": "inconclusive: 1.4 nM"}, {"smiles": "COc1ccc(-c2nc3cnc(N4CCNCC4)nc3n(Cc3cccs3)c2=O)cc1", "max dye-equivalent concentration": "active: 10 nM"}, {"smiles": "CC1(C)CC(=O)C=C(NC2CCS(=O)(=O)C2)C1", "note": "(stereo not drawn)", "max dye-equivalent concentration": "inconclusive: 4 nM"}, {"smiles": "COc1ccccc1CNC(=O)CNCC1CCCO1", "note": "(stereo not drawn)", "max dye-equivalent concentration": "inconclusive: 2.3 nM"}, {"smiles": "CCOc1ccccc1NC(=O)CC1NCCNC1=O", "note": "(stereo not drawn)", "max dye-equivalent concentration": "inactive"}, {"smiles": "OCCSc1c(F)c(SCCO)c(SCCO)c(F)c1SCCO", "max dye-equivalent concentration": "inconclusive: 1.3 nM"}, {"smiles": "CC(=O)N1CCc2cc(S(=O)(=O)NC(CC(C)C)C(=O)N3CCn4c3nc3ccccc34)ccc21", "note": "(stereo not drawn)", "max dye-equivalent concentration": "inactive"}, {"smiles": "COc1ccc(CCn2nnnc2C(C(C)C)N2CCC(C(N)=O)CC2)cc1OC", "note": "(stereo not drawn)", "max dye-equivalent concentration": "inconclusive: 1.2 nM"}, {"smiles": "O=C1C[C@H](c2ccccc2)Oc2cc(O)cc(O)c21", "max dye-equivalent concentration": "inactive"}, {"smiles": "CCC(=O)Nc1nn(C)c2nc3c(C)cccc3cc12", "max dye-equivalent concentration": "active: 15 nM"}, {"smiles": "O=S(=O)(c1ccccc1)N1CCC2(CCN(c3cccc(-c4ccccc4)c3)CC2)CC1", "max dye-equivalent concentration": "inactive"}, {"smiles": "Cc1ccc2c(c1)CCCN2C(=O)C1CCCO1", "note": "(stereo not drawn)", "max dye-equivalent concentration": "inactive"}, {"smiles": "Cc1cc(C)c2cc(CN(CC3CCCO3)S(=O)(=O)c3ccc4c(c3)OCCO4)c(=O)[nH]c2c1", "note": "(stereo not drawn)", "max dye-equivalent concentration": "inconclusive: 2.1 nM"}]}]}
